{"source": "PubChem BioAssay AID652243 (Drosophila RNAi Screening Center, 2013)", "aim": "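Fly regulators of androgen-dependent reporter output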 (primary screen)", "system": "Drosophila S2R+ cells", "reagents": "long dsRNA against Drosophila genes", "duration": "72 h (48 h, then 24 h hormone)", "conditions": "synthetic androgen R1881 at 10 nM for 24 h", "detection": "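Per-well raw luminescence of the androgen-driven firefly reporter and of the Renilla control, two replicates each, without normalisation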", "direction": "firefly reporter light: higher = more light from androgen-responsive reporter; Renilla control light: higher = more constitutive control signal (cell number, transfection)", "rule for the call": "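Hit when the log firefly-to-Renilla ratio dropped or increased by a fixed fold versus the mean of GFP or LacZ controls across duplicate plates; lowering cut given as 1.5 and as 3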", "meaning of the calls": "active = hit: reporter lowered or raised; inactive = no hit", "note": "The deposit covers about 24,000 reagents; below is an unselected part of those with a known target gene and a result. In the full data, 246 (1%) are marked active. 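Plates not normalised; calls are printed but the firefly/Renilla ratio behind them is not deposited; fold cut for lowering reported inconsistently.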 Raw values are not corrected between plates. A plus sign joins genes that one reagent is predicted to hit. No sequences are given here. Not stated in the record: the amount of reagent."}
{"gene":"CG32683","PubChem SID":"SID104197782","firefly reporter light, replicate 1":4.38e5,"firefly reporter light, replicate 2":2.98e5,"Renilla control light, replicate 1":3.08e6,"Renilla control light, replicate 2":2.87e6,"call":"inactive"}
{"gene":"CG32683","PubChem SID":"SID104198024","firefly reporter light, replicate 1":6.14e5,"firefly reporter light, replicate 2":4.94e5,"Renilla control light, replicate 1":2.69e6,"Renilla control light, replicate 2":3.96e6,"call":"inactive"}
{"gene":"CG32683","PubChem SID":"SID104198025","firefly reporter light, replicate 1":6.69e5,"firefly reporter light, replicate 2":4.02e5,"Renilla control light, replicate 1":6.03e6,"Renilla control light, replicate 2":2.45e6,"call":"inactive"}
{"gene":"CG32683","PubChem SID":"SID104208019","firefly reporter light, replicate 1":6.66e5,"firefly reporter light, replicate 2":8.23e5,"Renilla control light, replicate 1":1.20e6,"Renilla control light, replicate 2":1.20e6,"call":"inactive"}
{"gene":"CG5021","PubChem SID":"SID104190261","firefly reporter light, replicate 1":3.29e5,"firefly reporter light, replicate 2":2.79e5,"Renilla control light, replicate 1":3.27e6,"Renilla control light, replicate 2":2.94e6,"call":"inactive"}
{"gene":"Mcm5","PubChem SID":"SID104196527","firefly reporter light, replicate 1":1.97e5,"firefly reporter light, replicate 2":3.53e5,"Renilla control light, replicate 1":2.93e6,"Renilla control light, replicate 2":2.94e6,"call":"inactive"}
{"gene":"Mcm5","PubChem SID":"SID104208058","firefly reporter light, replicate 1":8.97e5,"firefly reporter light, replicate 2":7.56e5,"Renilla control light, replicate 1":1.14e6,"Renilla control light, replicate 2":1.14e6,"call":"inactive"}
{"gene":"sle + CG12592","PubChem SID":"SID104201153","firefly reporter light, replicate 1":3.33e5,"firefly reporter light, replicate 2":3.88e5,"Renilla control light, replicate 1":2.25e6,"Renilla control light, replicate 2":2.01e6,"call":"inactive"}
{"gene":"sle + CG12592","PubChem SID":"SID104205670","firefly reporter light, replicate 1":2.86e5,"firefly reporter light, replicate 2":2.35e5,"Renilla control light, replicate 1":5.34e5,"Renilla control light, replicate 2":5.17e5,"call":"inactive"}
{"gene":"sro","PubChem SID":"SID104194261","firefly reporter light, replicate 1":1.15e5,"firefly reporter light, replicate 2":1.59e5,"Renilla control light, replicate 1":1.63e6,"Renilla control light, replicate 2":2.37e6,"call":"inactive"}
{"gene":"sro","PubChem SID":"SID104205902","firefly reporter light, replicate 1":5.02e5,"firefly reporter light, replicate 2":6.18e5,"Renilla control light, replicate 1":9.34e5,"Renilla control light, replicate 2":9.53e5,"call":"inactive"}
{"gene":"CG33922","PubChem SID":"SID104216514","firefly reporter light, replicate 1":7.66e5,"firefly reporter light, replicate 2":6.93e5,"Renilla control light, replicate 1":2.10e6,"Renilla control light, replicate 2":2.10e6,"call":"inactive"}

Reformatted: 2 of the entries above.
CG32683 [SID104198025]
- firefly reporter light, replicate 1: 6.69e5
- firefly reporter light, replicate 2: 4.02e5
- Renilla control light, replicate 1: 6.03e6
- Renilla control light, replicate 2: 2.45e6
- call: inactive

CG32683 [SID104208019]
- firefly reporter light, replicate 1: 6.66e5
- firefly reporter light, replicate 2: 8.23e5
- Renilla control light, replicate 1: 1.20e6
- Renilla control light, replicate 2: 1.20e6
- call: inactive
